The text below walks through data of patent US20210269531A1 (TSINGHUA UNIVERSITY, published 2021).

No constants are given. Whether binding was seen depends on the method and setting.

To fix the notation:
B1: TrkB-agoAb2908 (antibody, IgG1, V domains shown)
VH: QVQLQQSGPELVKPGASVKISCKASGYTFSSSWMNWVKQRPGQGLEWIGRIYPGDGHTNYNGKFKGKATLTADKSSSTAYMQLTSLTSVDSGVYFCARSGYGYGFDCWGQGTTLTVSS
VL: NIVLTQSPASLAVSLGQRATISCRASESVDNYGNSLMHWYQQKPGQPPKLLIYLASNLESGVPARFSGSGSRTDFTLTIDPVEADDAATYYCQQNNEDPPWTFGGGTKLEIKR
B2: TrkB-agoAb1104 (antibody, IgG1, V domains shown)
VH: QVQLQQSGAELARPGASVKLSCKASGYTFTRYWMQWVKQRPGQGLEWIGAIYPGDGDTRYTQKFKGKATLTADKSSSTAYMQLSSLASEDSAVYYCAGSGLGRAWFTYWGQGTLVTVSA
VL: DIQMTQSPASLSASVGETVTITCRSSENIYSYLAWYQQKQGKSPQLLVYNAKTLAEGVPSRFSGSGSGTQFSLKINSLQPEDFGSYYCQHHYGPPYTFGGGTKLEIK
B3: TrkB-agoAb303 (antibody, V domains shown)
VH: DVKLVESGGGLVKPGGSLKLSCAASGFTFSSYTMSWVRQTPEKRLEWVATISSGGDYTYFPDSVKGRFTMSRDNAKNALYLQMSSLKSEDTAMYYCTRESGRGDFDYWGQGTTLTVSS
VL: DVLMTQTPLSLPVSLGDQASISCRSSQNIVHSNGNTYLEWYLQKPGQSPNLLIYNVSNRFSGVPDRFSGSGSGTDFTLKISRVEAEDLGVYYCFQGSHFPWTFGGGTKLEIT
notes: Mouse monoclonal antibody

The target in one assay is TrkC. As to the kind of experiment: ELISA, protein coated on plate. (In general: An ELISA detects its analyte on a solid surface through an enzyme-linked reagent.)
B1: the binding result is on record as “no binding (tested: 10 nM, 1 nM or 0.1 nM antibody)”.
Consider B2, for which the binding entry was “no binding (tested: 10 nM, 1 nM or 0.1 nM antibody)”.
With B3, the binding result is “no binding (tested: 10 nM, 1 nM or 0.1 nM antibody)”.

A further assay deals with TrkC. As to the kind of experiment: ELISA on coated TrkC, antibody at 10 nM, 1 nM and 0.1 nM.
On to B1, for which the binding result was “no binding (tested: 10 nM)”.
Turning to B2, the binding entry is listed as “no binding (tested: 10 nM)”.
B3: the binding entry is “no binding (tested: 10 nM)”.
